PubChem BioAssay AID602196 | INSERM, 2012

- Test: 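Knock-downs that protect lung cancer cells from cisplatin or sensitise them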
- System: human A549 lung cancer cells
- Reagents: siRNA pair against human genes
- Timing: 48 h transfection before cisplatin; time from cisplatin to read-out not stated
- Treatment: cisplatin at a dose killing half of control-siRNA cells; exact dose and duration not given
- Read-out: 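Shift in cisplatin death relative to control siRNA, from -50 (all cells die) to +50 (no cells die); siRNAs harmful on their own scored 0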
- Reading the numbers: two-siRNA summed score (-2 to +2): higher = both siRNAs protect from cisplatin killing; -2 means both sensitise; mean protection from cisplatin (shift in death): higher = protection from cisplatin killing
- Call rule: 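siRNAs harmful alone (LDH or WST-1) get 0; others get +1 for less and -1 for more cisplatin killing; genes are active when the two siRNAs give the same sign, summing to ±2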
- Calls: active = both siRNAs shift cisplatin killing the same way; inactive = no consistent shift, or siRNA harmful alone
The whole screen tested about 23,000 reagents; this is a part drawn at random. 455 of them (2%) were called active. 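Active includes both protection and sensitisation; some change values fall well beyond the stated -50 to +50 range.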 Not all columns of the deposit are shown. The record does not give: the amount of reagent.

Silencing of FXR1 resulted in: two-siRNA summed score (-2 to +2) = -1; mean protection from cisplatin (shift in death) (%) = -17.4; inactive.
Against RLBP1, the entry reads two-siRNA summed score (-2 to +2) = 1; mean protection from cisplatin (shift in death) (%) = 20.9; inactive.
For PLN, the entry reads two-siRNA summed score (-2 to +2) = 0; mean protection from cisplatin (shift in death) (%) = -3.3; inactive.
AGBL5 showed two-siRNA summed score (-2 to +2) = 0; mean protection from cisplatin (shift in death) (%) = -4.4; inactive.
With knock-down of CHMP6, the screen gave two-siRNA summed score (-2 to +2) = 1; mean protection from cisplatin (shift in death) (%) = 16.6; inactive.
Depletion of LOC441146 came out at: two-siRNA summed score (-2 to +2) = 0; mean protection from cisplatin (shift in death) (%) = 12.1; inactive.
Against LOC163404, the entry reads two-siRNA summed score (-2 to +2) = 0; mean protection from cisplatin (shift in death) (%) = 4.2; inactive.
MAPK13 scored two-siRNA summed score (-2 to +2) = 0; mean protection from cisplatin (shift in death) (%) = 0.8; inactive.
Silencing of CD274 came out at: two-siRNA summed score (-2 to +2) = -1; mean protection from cisplatin (shift in death) (%) = -22.2; inactive.
RELA showed two-siRNA summed score (-2 to +2) = 0; mean protection from cisplatin (shift in death) (%) = 2; inactive.
Silencing of LOC390736 resulted in: two-siRNA summed score (-2 to +2) = 0; mean protection from cisplatin (shift in death) (%) = 13.8; inactive.
After knock-down of RASSF4 the results were two-siRNA summed score (-2 to +2) = 1; mean protection from cisplatin (shift in death) (%) = 15; inactive.
For PEA15, the entry reads two-siRNA summed score (-2 to +2) = 0; mean protection from cisplatin (shift in death) (%) = -5.3; inactive.
For TUBB2B, the values are two-siRNA summed score (-2 to +2) = 0; mean protection from cisplatin (shift in death) (%) = 12.3; inactive.
Silencing of RNF41 resulted in: two-siRNA summed score (-2 to +2) = 0; mean protection from cisplatin (shift in death) (%) = 13.2; inactive.
After knock-down of MUC3B, the screen gave two-siRNA summed score (-2 to +2) = -1; mean protection from cisplatin (shift in death) (%) = -16.9; inactive.
Against METTL6, the values are two-siRNA summed score (-2 to +2) = 0; mean protection from cisplatin (shift in death) (%) = 0.1; inactive.
LOC401006 scored two-siRNA summed score (-2 to +2) = 0; mean protection from cisplatin (shift in death) (%) = 13.4; inactive.
Depletion of ZNF85 gave: two-siRNA summed score (-2 to +2) = 0; mean protection from cisplatin (shift in death) (%) = 3.4; inactive.
TMEM117 gave two-siRNA summed score (-2 to +2) = 0; mean protection from cisplatin (shift in death) (%) = 2.7; inactive.
Depletion of DYDC2 resulted in: two-siRNA summed score (-2 to +2) = 0; mean protection from cisplatin (shift in death) (%) = 0.1; inactive.
For SHROOM1, the values are two-siRNA summed score (-2 to +2) = 0; mean protection from cisplatin (shift in death) (%) = 17.4; inactive.
After knock-down of TOX, the screen gave two-siRNA summed score (-2 to +2) = 0; mean protection from cisplatin (shift in death) (%) = 8.9; inactive.
Silencing of PHACTR2 resulted in: two-siRNA summed score (-2 to +2) = 0; mean protection from cisplatin (shift in death) (%) = 0.8; inactive.
With knock-down of RNF141 the results were two-siRNA summed score (-2 to +2) = 0; mean protection from cisplatin (shift in death) (%) = 10.5; inactive.
For LOC400662 (retired record) the deposit lists two-siRNA summed score (-2 to +2) = 0; mean protection from cisplatin (shift in death) (%) = 2.2; inactive.
For LOC399917 the deposit lists two-siRNA summed score (-2 to +2) = 0; mean protection from cisplatin (shift in death) (%) = 2.7; inactive.
For CLEC3B, the values are two-siRNA summed score (-2 to +2) = 1; mean protection from cisplatin (shift in death) (%) = 9.9; inactive.
Silencing of PLEKHO1 came out at: two-siRNA summed score (-2 to +2) = 0; mean protection from cisplatin (shift in death) (%) = -6.9; inactive.
Silencing of MAP1LC3B gave: two-siRNA summed score (-2 to +2) = 0; mean protection from cisplatin (shift in death) (%) = 3; inactive.
Silencing of GSC resulted in: two-siRNA summed score (-2 to +2) = 1; mean protection from cisplatin (shift in death) (%) = 7; inactive.
